According to patent US20100158857A1, “Compositions and methods for the inhibition of endothelial nitric oxide synthase activity” (University Of utah Research Foundation, priority 2006, published 2010):
At least one peptide structure holds a part that was inferred or is arguable (an end, a ring closure or a residue). Some of these results come from one statement about several compounds together.

System: peritoneal exudate cells
Assay: Inhibition of NO synthesis in IFNγ/LPS-stimulated peritoneal exudate cells (Griess reaction)
Type: cell-based
Settings: 48 hours
Method: First, peritoneal exudate cells were elicited by thioglycolate. These cells were then harvested and cultured in 96 well microtiter wells at 1×10^6 overnight in DMEM media with 5% FCS. Media was then replaced with DMEM containing 50 Units/ml of IFNγ and 100 ng/ml bacterial lipopolysaccharide. Serial dilutions of either N^G-monomethy-L-larginine (MLA) or Polymethylarginine (poly-MLA 7-mer) were then added to experimental wells. The highest concentration of MLA was 1 mM and of Polymethylarginine was 400 uM.
The cultures were then incubated for 48 hours and culture supernatants were assayed for the NO metabolite nitrate using the Griess reaction after nitrate reduction.

`CNC(=N)NCCC[C@H](NC(=O)[C@H](CCCNC(=N)NC)NC(=O)[C@H](CCCNC(=N)NC)NC(=O)[C@H](CCCNC(=N)NC)NC(=O)[C@H](CCCNC(=N)NC)NC(=O)[C@H](CCCNC(=N)NC)NC(=O)[C@@H](N)CCCNC(=N)NC)C(=O)O` [poly-MLA, (N^G-mono-methyl-L-arginine)^7] was tested, and the “Inhibition of NO production relative to MLA” value (serial dilutions) was “slightly greater inhibition”, the “Effect of serial dilutions on NO production” value (highest concentration MLA 1 mM, Polymethylarginine 400 uM) was “blocked NO production” and the “Nitrite synthesis in culture supernatant” value (lowest dilutions of inhibitor, IFNγ 50 Units/ml + LPS 100 ng/ml) was “over 100 μM”.
